{"source": "PubChem BioAssay AID1259424 (University of Nebraska Medical Center, 2018)", "test": "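Find knockdowns that reproduce the expression shifts seen after KSR1 loss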 (primary screen)", "cells": "human HCT116 colon cancer cells", "reagent": "siRNA pool against human genes, 50 nM", "measurement": "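Log2 levels of six mRNAs (branched-DNA multiplex), adjusted by two reference genes and the non-targeting median, then scored against the average KSR1 knockdown pattern as Pearson r and euclidean distance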", "direction": "mean correlation with KSR1 profile: higher = expression change more like KSR1 knockdown; mean distance from KSR1 profile: higher = expression change less like KSR1 knockdown", "note": "This is a random part of about 14,000 reagents tested. 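Higher correlation or smaller distance means closer resemblance to KSR1 loss; control wells, including KSR1 knockdowns, recur on many plates.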 Not all columns of the deposit are shown. Not given: the time to read-out."}
{"Target gene":"ANKRD39 (ankyrin repeat domain 39)","mean correlation with KSR1 profile":-0.74,"mean distance from KSR1 profile":2.28}
{"Target gene":"RASGRF2 (Ras protein specific guanine nucleotide releasing factor 2)","mean correlation with KSR1 profile":0.715,"mean distance from KSR1 profile":1.41}
{"Target gene":"SLC7A6OS","mean correlation with KSR1 profile":0.635,"mean distance from KSR1 profile":3.03}
{"Target gene":"GPX7 (glutathione peroxidase 7)","mean correlation with KSR1 profile":-0.215,"mean distance from KSR1 profile":4.08}
{"Target gene":"AP1AR","mean correlation with KSR1 profile":-0.37,"mean distance from KSR1 profile":1.58}
{"Target gene":"CHRNB3 (cholinergic receptor nicotinic beta 3 subunit)","mean correlation with KSR1 profile":-0.651,"mean distance from KSR1 profile":1.29}
{"Target gene":"APOL2 (apolipoprotein L2)","mean correlation with KSR1 profile":-0.377,"mean distance from KSR1 profile":2.22}
{"Target gene":"CRYBA4 (crystallin beta A4)","mean correlation with KSR1 profile":-0.0118,"mean distance from KSR1 profile":2.19}
{"Target gene":"MTHFR (methylenetetrahydrofolate reductase)","mean correlation with KSR1 profile":0.0538,"mean distance from KSR1 profile":2.04}
{"Target gene":"ZNF444 (zinc finger protein 444)","mean correlation with KSR1 profile":-0.282,"mean distance from KSR1 profile":2.13}
{"Target gene":"ASXL2 (ASXL transcriptional regulator 2)","mean correlation with KSR1 profile":-0.191,"mean distance from KSR1 profile":1.66}
{"Target gene":"WASF2 (WASP family member 2)","mean correlation with KSR1 profile":0.65,"mean distance from KSR1 profile":1.9}
{"Target gene":"CENPB (centromere protein B)","mean correlation with KSR1 profile":0.332,"mean distance from KSR1 profile":1.41}
{"Target gene":"AP1M2 (adaptor related protein complex 1 subunit mu 2)","mean correlation with KSR1 profile":0.0703,"mean distance from KSR1 profile":1.66}

Already shown: an excerpt of the list.
{"Target gene":"ZNF444 (zinc finger protein 444)","mean correlation with KSR1 profile":-0.282,"mean distance from KSR1 profile":2.13}
{"Target gene":"ASXL2 (ASXL transcriptional regulator 2)","mean correlation with KSR1 profile":-0.191,"mean distance from KSR1 profile":1.66}
{"Target gene":"WASF2 (WASP family member 2)","mean correlation with KSR1 profile":0.65,"mean distance from KSR1 profile":1.9}
{"Target gene":"CENPB (centromere protein B)","mean correlation with KSR1 profile":0.332,"mean distance from KSR1 profile":1.41}

The list goes on:
{"Target gene":"WDCP (WD repeat and coiled coil containing)","mean correlation with KSR1 profile":0.783,"mean distance from KSR1 profile":0.905}
{"Target gene":"MAX (MYC associated transcriptional regulator X)","mean correlation with KSR1 profile":0.404,"mean distance from KSR1 profile":2.58}
{"Target gene":"WDR70 (WD repeat domain 70)","mean correlation with KSR1 profile":-0.247,"mean distance from KSR1 profile":3.8}
{"Target gene":"USP20 (ubiquitin specific peptidase 20)","mean correlation with KSR1 profile":0.0809,"mean distance from KSR1 profile":1.6}
{"Target gene":"WBP4 (WW domain binding protein 4)","mean correlation with KSR1 profile":-0.618,"mean distance from KSR1 profile":1.78}
{"Target gene":"MTO1 (mitochondrial tRNA translation optimization 1)","mean correlation with KSR1 profile":-0.614,"mean distance from KSR1 profile":2.23}
{"Target gene":"SPTBN5 (spectrin beta, non-erythrocytic 5)","mean correlation with KSR1 profile":0.0593,"mean distance from KSR1 profile":3.62}
{"Target gene":"PRICKLE4 (prickle planar cell polarity protein 4)","mean correlation with KSR1 profile":-0.276,"mean distance from KSR1 profile":1.48}
{"Target gene":"MMS19 (MMS19 cytosolic iron-sulfur assembly component)","mean correlation with KSR1 profile":-0.423,"mean distance from KSR1 profile":2.15}
{"Target gene":"H4C7 (H4 clustered histone 7)","mean correlation with KSR1 profile":-0.464,"mean distance from KSR1 profile":2.36}
{"Target gene":"ARMC8 (armadillo repeat containing 8)","mean correlation with KSR1 profile":-0.164,"mean distance from KSR1 profile":2.53}
{"Target gene":"SNX22 (sorting nexin 22)","mean correlation with KSR1 profile":0.0189,"mean distance from KSR1 profile":3.73}
{"Target gene":"CFB (complement factor B)","mean correlation with KSR1 profile":0.535,"mean distance from KSR1 profile":2.88}
{"Target gene":"MAGEC3 (MAGE family member C3)","mean correlation with KSR1 profile":-0.644,"mean distance from KSR1 profile":3.53}
